According to US20100183584A1, “CONFORMATION AND ACTIVITY OF GBETA5 COMPLEXES” (University Of Miami, priority 2007, published 2010):
Results are given in words; binding and its absence hold for the method and conditions named. Binding seen in cells or lysates may run through a third protein. Some entries that bind do so weakly or less than the wild type. Tags and fused reporters may be left off the sequences shown.

Amino acid sequences for entries named in this document (tags omitted). Residues count along the entry.
UniProt P62874, residues 2-340: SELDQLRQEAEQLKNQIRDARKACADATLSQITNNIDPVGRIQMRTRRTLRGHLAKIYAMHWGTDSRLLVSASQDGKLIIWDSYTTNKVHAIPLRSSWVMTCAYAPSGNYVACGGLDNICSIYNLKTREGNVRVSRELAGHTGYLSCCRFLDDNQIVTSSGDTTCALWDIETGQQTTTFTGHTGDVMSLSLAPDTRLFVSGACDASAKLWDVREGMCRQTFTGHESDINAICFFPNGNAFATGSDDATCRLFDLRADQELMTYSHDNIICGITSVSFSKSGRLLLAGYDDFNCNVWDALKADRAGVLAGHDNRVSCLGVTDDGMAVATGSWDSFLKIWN

Tests used:
[1] = target: T1, native RGS7-Gβ5 complex from mouse brain extract (mouse) (UniProt P62881+O54829); assay: GST pull-down on glutathione beads from mouse brain extract, western blot with anti-RGS7 and anti-Gβ5; D: densitometry of eight experiments [1B, 1C, 1D]
T1 sequence (looked up) 1: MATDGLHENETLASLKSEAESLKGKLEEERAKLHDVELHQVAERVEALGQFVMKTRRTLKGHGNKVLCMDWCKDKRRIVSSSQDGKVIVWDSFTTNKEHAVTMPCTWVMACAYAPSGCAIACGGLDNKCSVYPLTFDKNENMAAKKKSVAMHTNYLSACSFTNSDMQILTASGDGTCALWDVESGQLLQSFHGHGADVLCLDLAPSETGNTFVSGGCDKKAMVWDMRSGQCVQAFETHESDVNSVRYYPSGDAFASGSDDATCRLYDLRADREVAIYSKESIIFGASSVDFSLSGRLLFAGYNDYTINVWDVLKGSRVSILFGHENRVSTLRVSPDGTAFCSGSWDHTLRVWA
T1 sequence (looked up) 2: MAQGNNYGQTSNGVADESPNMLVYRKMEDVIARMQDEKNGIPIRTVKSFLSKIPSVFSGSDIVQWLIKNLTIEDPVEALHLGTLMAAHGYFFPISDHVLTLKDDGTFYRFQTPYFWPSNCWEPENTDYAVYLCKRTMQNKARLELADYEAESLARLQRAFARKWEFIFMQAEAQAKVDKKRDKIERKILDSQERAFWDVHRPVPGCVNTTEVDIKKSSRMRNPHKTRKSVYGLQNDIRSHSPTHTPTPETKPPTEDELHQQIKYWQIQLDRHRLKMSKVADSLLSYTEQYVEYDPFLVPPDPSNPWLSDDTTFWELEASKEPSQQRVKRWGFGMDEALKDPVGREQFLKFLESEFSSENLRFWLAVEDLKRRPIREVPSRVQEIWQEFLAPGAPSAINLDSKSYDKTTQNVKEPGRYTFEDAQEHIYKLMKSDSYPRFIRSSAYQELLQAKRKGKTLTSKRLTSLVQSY

[2] = target: T1, native RGS7-Gβ5 complex from mouse brain extract (mouse); assay: GST pull-down from mouse brain extract, western blot with anti-RGS7 and anti-Gβ5
[3] = target: T1, native RGS7-Gβ5 complex from mouse brain extract (mouse); assay: GST pull-down from tissue extract
[4] = target: native Gβ1 from mouse brain extract (mouse) (UniProt P62874); assay: GST pull-down from mouse brain extract, western blot
[5] = target: T1, native RGS7-Gβ5 complex from mouse brain extract (mouse); assay: as above
[6] = target: native Gβ1 from mouse brain extract (mouse) (UniProt P62874); assay: GST pull-down on glutathione beads from mouse brain extract, western blot with anti-Gβ1

Measured: binding

B1: GST-R7DEP (GST fusion of amino acids 34-124 of bovine RGS7) (protein, UniProt O46470 34-124, looked up, not shown: a dimerising Fc or GST)
chain: MQDEKNGIPIRTVKSFLSKIPSVFSGSDIVQWLIKNLTIEDPVEALHLGTLMAAHGYFFPISDHVLTLKDDGTFYRFQTPYFWPSNCWEPE
binds: all assays above
